Data: paper doi:10.1101/2025.09.01.673592
No constants are given. Whether binding was seen depends on the method and setting. Binding seen in cells or lysates may run through a third protein. Some results given as binding are weak or reduced against the parent protein; the word gives no strength. For part of these data: Sequences can lack the tags named with a protein. Each block holds one molecule with its values, some of them ahead of it.

The chains behind the UniProt entries cited, without tags or fusion partners.
UniProt Q9CWH6: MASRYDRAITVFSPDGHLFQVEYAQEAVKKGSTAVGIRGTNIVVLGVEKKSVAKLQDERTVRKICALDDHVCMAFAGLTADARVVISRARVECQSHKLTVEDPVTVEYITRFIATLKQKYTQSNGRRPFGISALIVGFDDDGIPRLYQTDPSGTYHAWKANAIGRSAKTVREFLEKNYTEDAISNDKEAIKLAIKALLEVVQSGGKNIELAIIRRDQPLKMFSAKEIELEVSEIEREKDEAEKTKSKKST
UniProt Q9Z2U0: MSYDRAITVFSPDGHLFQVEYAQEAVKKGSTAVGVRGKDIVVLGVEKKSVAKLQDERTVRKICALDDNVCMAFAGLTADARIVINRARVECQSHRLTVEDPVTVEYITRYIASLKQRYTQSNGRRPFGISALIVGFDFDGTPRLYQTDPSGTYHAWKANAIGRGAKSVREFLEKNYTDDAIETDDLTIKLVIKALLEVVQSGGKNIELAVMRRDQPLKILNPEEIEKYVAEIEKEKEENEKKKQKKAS
UniProt Q8VDM4: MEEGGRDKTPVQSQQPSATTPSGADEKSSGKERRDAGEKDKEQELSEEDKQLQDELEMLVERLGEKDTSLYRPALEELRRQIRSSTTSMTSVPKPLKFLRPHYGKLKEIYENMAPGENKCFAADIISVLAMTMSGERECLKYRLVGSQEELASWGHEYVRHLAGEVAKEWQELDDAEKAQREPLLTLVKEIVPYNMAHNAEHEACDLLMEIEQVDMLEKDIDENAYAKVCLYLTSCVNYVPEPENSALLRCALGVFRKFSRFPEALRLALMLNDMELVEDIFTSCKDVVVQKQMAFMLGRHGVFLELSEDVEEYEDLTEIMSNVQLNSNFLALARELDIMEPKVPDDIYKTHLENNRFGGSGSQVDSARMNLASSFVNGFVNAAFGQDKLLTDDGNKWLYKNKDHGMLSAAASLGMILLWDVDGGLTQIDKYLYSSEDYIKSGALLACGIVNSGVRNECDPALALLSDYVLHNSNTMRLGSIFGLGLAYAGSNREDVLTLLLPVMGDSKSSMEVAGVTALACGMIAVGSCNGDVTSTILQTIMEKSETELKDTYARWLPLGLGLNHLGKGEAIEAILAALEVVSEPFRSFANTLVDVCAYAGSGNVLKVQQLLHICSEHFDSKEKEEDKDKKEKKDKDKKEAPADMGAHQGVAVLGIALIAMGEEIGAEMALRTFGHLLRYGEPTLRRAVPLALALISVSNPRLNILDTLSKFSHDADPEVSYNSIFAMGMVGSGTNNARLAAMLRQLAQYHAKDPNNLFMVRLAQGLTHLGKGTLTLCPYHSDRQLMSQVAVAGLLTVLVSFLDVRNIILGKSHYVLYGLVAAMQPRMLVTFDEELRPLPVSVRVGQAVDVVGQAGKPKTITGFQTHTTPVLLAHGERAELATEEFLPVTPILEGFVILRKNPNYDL
UniProt Q9R1P4: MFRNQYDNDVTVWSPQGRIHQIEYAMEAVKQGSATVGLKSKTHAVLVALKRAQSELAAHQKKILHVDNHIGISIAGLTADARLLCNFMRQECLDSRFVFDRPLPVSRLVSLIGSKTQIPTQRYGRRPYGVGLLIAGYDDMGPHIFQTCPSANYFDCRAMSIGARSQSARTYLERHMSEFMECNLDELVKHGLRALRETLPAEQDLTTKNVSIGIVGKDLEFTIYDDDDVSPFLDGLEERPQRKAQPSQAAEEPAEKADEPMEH
UniProt P25786: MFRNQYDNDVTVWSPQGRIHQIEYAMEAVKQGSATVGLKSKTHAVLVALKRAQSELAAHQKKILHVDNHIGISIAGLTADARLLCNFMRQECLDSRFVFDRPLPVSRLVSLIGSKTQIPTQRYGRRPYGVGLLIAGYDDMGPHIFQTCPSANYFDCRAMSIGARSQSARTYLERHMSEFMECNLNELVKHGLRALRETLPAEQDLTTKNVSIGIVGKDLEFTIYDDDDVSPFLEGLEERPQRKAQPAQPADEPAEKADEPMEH
UniProt P25787: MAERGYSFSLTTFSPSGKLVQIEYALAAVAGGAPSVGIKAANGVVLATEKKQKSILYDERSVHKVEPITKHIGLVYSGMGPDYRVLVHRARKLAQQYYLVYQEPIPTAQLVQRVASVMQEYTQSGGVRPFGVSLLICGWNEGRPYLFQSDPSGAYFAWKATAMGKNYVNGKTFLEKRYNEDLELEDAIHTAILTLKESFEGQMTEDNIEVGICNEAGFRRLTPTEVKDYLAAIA
UniProt Q13200: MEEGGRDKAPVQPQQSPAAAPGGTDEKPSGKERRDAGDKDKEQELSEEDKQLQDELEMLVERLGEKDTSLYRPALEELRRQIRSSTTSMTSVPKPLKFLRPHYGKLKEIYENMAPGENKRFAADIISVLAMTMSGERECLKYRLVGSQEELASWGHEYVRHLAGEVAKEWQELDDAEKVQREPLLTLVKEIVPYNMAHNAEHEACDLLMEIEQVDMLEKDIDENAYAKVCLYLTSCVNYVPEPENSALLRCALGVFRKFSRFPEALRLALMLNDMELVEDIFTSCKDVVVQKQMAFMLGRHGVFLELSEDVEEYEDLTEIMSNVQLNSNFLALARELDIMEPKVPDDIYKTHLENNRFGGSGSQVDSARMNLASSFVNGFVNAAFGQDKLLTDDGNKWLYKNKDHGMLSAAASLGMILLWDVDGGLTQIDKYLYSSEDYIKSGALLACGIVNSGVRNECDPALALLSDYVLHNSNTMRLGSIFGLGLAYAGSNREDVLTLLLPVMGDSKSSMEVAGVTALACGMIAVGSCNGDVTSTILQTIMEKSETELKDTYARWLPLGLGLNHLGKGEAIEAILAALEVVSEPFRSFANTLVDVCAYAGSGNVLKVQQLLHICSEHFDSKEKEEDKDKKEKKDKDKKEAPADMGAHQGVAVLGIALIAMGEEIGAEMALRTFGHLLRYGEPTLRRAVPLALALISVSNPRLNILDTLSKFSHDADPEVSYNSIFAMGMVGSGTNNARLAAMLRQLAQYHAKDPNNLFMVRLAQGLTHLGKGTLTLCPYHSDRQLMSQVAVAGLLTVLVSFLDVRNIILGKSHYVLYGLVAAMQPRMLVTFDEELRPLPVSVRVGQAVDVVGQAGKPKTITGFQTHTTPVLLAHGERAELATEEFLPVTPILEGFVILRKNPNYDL
UniProt P55036: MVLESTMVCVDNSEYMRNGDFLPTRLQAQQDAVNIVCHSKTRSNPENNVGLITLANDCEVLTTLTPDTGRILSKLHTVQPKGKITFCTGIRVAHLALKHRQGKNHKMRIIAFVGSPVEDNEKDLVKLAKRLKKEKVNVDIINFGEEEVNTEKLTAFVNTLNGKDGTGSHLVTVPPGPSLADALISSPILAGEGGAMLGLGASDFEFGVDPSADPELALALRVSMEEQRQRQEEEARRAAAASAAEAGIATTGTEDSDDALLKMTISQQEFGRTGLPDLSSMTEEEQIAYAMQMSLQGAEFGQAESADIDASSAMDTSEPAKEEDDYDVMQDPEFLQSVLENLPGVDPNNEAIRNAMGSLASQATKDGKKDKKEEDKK
UniProt O00487: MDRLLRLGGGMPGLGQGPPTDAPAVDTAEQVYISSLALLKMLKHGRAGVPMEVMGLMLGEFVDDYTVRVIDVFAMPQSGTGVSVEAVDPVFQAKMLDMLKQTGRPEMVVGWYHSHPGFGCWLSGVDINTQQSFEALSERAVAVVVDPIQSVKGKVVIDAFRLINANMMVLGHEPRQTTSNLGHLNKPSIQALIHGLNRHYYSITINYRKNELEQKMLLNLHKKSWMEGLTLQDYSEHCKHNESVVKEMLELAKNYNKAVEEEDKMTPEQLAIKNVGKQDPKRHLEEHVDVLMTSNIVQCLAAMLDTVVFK

What was measured:
[1] = biological target: PSMA8 (UniProt Q9CWH6); assay: co-IP
[2] = biological target: PSMA7 (UniProt Q9Z2U0); assay: co-IP
[3] = biological target: PSMD2 (mouse (endogenous in embryos)) (UniProt Q8VDM4); assay: proximity ligation
[4] = biological target: T1, MYC-Fetuin B (mouse) (UniProt Q9QXC1); assay: co-IP
T1 sequence: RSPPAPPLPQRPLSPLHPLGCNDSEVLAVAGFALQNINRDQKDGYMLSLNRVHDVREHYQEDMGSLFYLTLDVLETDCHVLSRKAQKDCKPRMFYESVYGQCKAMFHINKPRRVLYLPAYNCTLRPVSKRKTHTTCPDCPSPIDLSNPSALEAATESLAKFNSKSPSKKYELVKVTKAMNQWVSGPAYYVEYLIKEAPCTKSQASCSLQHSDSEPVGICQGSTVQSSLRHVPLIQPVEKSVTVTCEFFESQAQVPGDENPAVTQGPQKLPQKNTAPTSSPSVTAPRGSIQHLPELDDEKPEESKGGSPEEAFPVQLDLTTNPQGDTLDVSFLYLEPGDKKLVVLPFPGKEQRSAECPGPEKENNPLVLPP

Molecule: PSMA1-eGFP (from UniProt Q9R1P4 1-263)
binding [3]: binds

Molecule: PSMA1 (from UniProt P25786 1-263)
binding [1]: binds | binding [2]: binds

Molecule: PSMA2 (from UniProt P25787 1-234)
binding [1]: binds | binding [2]: binds

Second part, the molecule after the results:

binding [1]: binds | binding [2]: binds
Molecule: PSMD2 (from UniProt Q13200 1-908)

binding [1]: binds | binding [2]: binds
Molecule: PSMD4 (from UniProt P55036 1-377)

binding [1]: binds | binding [2]: binds
Molecule: PSMD14 (from UniProt O00487 1-310)

binding [4]: binds
B1: MARCH3-FLAG (enzyme, UniProt Q8BRX9 1-218)
chain: MTTSRCSHLPEVLPDCTSSAAPVVKTVEDCGSLVNGQPQYVMQVSAKDGQLLSTVVRTLATQSPFNDRPMCRICHEGSSQEDLLSPCECTGTLGTIHRSCLEHWLSSSNTSYCELCHFRFAVERKPRPLVEWLRNPGPQHEKRTLFGDMVCFLFITPLATISGWLCLRGAVDHLHFSSRLEAVGLIALTVALFTIYLFWTLRRYGHQSKPFWNQSSRS
